Test results from US20260258083A1 (AMGEN INC., priority 2023, published 2026).

What was measured:
peptide synthesis = conditions: whole synthesis
[1] = tested on: DLL3xCD3 TCE SEQ ID NO 104; test: SPR assay of immobilized peptides binding with TCE; conditions: immobilized peptide, Kinetic 1:1 Binding
Method: (§1) Example 14: SPR Assay of Immobilized Peptides Binding with TCE
(§2) A cytiva CM5 chip was first functionalized with PDEA (2-(2pyridinyldithio)ethaneamine) under standard ((1-ethyl-3-(3-dimethylaminopropyl)carbodiimide)/(N-hydroxysuccinimide) EDC/NHS coupling conditions where the PDEA is dissolved to 20 mM and 1 M NaCl in 0.1 M sodium acetate pH 4.3. Binding peptides were dissolved to 50- or 100-ug/mL respectively in PBST, pH 6.5, and coupling times were optimized to yield the desired surface density.

[2] = tested on: FLT3xCD3 TCE SEQ ID NO 93; test: SPR assay of immobilized peptides binding with TCE; conditions: immobilized peptide, Kinetic 1:1 Binding
Method: as §1, §2

[3] = tested on: Steap 1xCD3 TCE SEQ ID NO 373 + 374 + 375; test: SPR assay of immobilized peptides binding with TCE; conditions: immobilized peptide, Kinetic 1:1 Binding
Method: as §1, §2

Row | Substance | final HPLC purity (peptide synthesis) [%] | Rmax (RU) [1] [RU] | Rmax (RU) [2] [RU] | Rmax (RU) [3] [RU]
1 | [pGlu]DGIEELKGC | >95 | – | – | –
2 | [pGlu]DGSEELKGC | >95 | – | – | –
3 | [pGlu]DGTEELKGC [listing 1 of 2 here] | – | 11 | 8.1 | 15.1
4 | [pGlu]DGTEELKGC [listing 2 of 2 here] | >95 | – | – | –
5 | [pGlu]DGVEELKGC | >95 | – | – | –
6 | pGlu-DGEEELKGC (N-terminal pyroglutamate; VARIANT 1 Pyroglutamic acid) [listing 1 of 2 here] | – | 47.5 | 20.3 | 30.2
7 | pGlu-DGEEELKGC (N-terminal pyroglutamate; VARIANT 1 Pyroglutamic acid) [listing 2 of 2 here] | >95 | – | – | –
8 | pGlu-DGNEELKGC (EDGNEELKGC; non-natural residues) | – | 58.5 | 171 | 395.1

For some assays here: The same purity stands for every peptide and may come from a single statement. Where no end group is shown, it is not given here. [ ]: non-standard residue; d: D form. pGlu = O=C1CC[C@@H](C(=O)O)N1
